The other results are listed elsewhere or left out.

B1: il2ra_site1_1z92_normal_mot_HHH_b2_00494_000000030_0001_41_54_H_._0a28df53656836c8faf163f96bad2529_0001_1_0001_0000200039_0000001_1 (protein)
chain: SYLELLVELVKRISPETAEDVEEYIKFAKRSGLPPERILQRLLRLARDAGDEELTEIIEEVLEEH
B2: il2ra_site1_1z92_sap_15_mot_HHH_b1_03515_000000289_0001_1_19_H_._HHH_b2_03101_0001_0000100011_0000001_0_0001 (protein)
chain: STMEWMIRLAEELGNPEVAEALRELLKLLKEDPNNKELSHLLTLLAHLLQKDPEEVERLAEEALE
B3: il2ra_site2_2erj_normal_mot_HHH_b1_03107_000000098_0001_39_52_H_._HHH_b2_02929_0001_0000400028_0000001_0 (protein)
chain: SSSSSDTQELWERVAELLQEAAHIEDPEEAREVLEEARELAEEGNDPALERYVEYVRRDLSSSSS
B4: il2ra_site2_3nfp_sap_18_mot_HHH_b1_04175_000000186_0001_44_58_H_._c0f0c6b645b03e3acbc3a7421e1f7935_0001_1_0001_0000300049_0000001_1_0001_af2pred_0001_af2pred (protein)
chain: SSSSSEEEERVRELIEEAKELLENGNPEEAKRALAEAVDLAKEAGNEELLLELYEILLKLLSSSS
B5: il2ra_site1_1z92_normal_mot_22aa8d8ad8dce7f663ea8fa348a52261_0001_000000005_0001_37_51_H_._d42de0cc81f4e0b3186ba921eb477610_0001_af2_0001_0000200010_0000001_0 (protein)
chain: SEEVEKIQELLKELDTPEALTLLRILERLAETAGNPEFALEQLKFALERLGSPELLRLLEELEER
B6: il2ra_site1_2b5i_normal_mot_HHH_b2_04910_000000118_0001_1_19_H_._HHH_b1_08078_0001_0000200004_0000001_0_af2pred_dldesign_0_af2pred (protein)
chain: SSSSSEVGAEILRLVEEANRLYQAGKEEEAKKLLEEALKLAKENNLNRYKKFVEACLKSLSSSSS
B7: il2ra_site2_3nfp_sap_12_mot_HHH_b2_00729_000000274_0001_42_55_H_._HHH_b1_04317_0001_0000100001_0000001_0_0001 (protein)
chain: SSSSDKAEEYLRIVLELAEEALELGDEYAVKSTLHVAKLAAHSNRDEEVEKQLREIEEALSSSSS
B8: il2ra_site1_1z92_sap_19_mot_HHH_b1_02241_000000292_0001_1_14_H_._HHH_b2_00689_0001_0001100033_0000001_0_0001 (protein)
chain: PEFLERDFERTLEFGIPPKDVAFVLLEALRSAGIPPEEVEELVRKVLERLLGDPEEAERVLERAK
B9: il2ra_site2_3nfp_sap_27_mot_HHH_b1_02422_000000114_0001_42_59_H_._934a834d9b8b770824478def2ff2f329_0001_0001_0000400062_0000001_0_0001 (protein)
chain: SSSDESEEIFEEAEKELRRLLEEGDRREASELTIEALRKLKELGDDELVLKLYAILAEALLSSSS
B10: il2ra_site2_3nfp_normal_mot_HHH_b1_05628_af2_000000064_0001_19_35_H_._HHH_b2_05903_af2_0001_0000800026_0000001_0 (protein)
chain: SSSSDEEEEELEELLKELRKAVEEGDEEKVEQLASRIALLAFELNDFEAFAEASELMRELISSSS
B11: il2ra_site2_2erj_sap_13_mot_HHH_b2_03493_000000046_0001_40_57_H_._HHH_b2_04319_0001_0000500045_0000001_0_0001_af2pred_0001_af2pred (protein)
chain: SSSSSSSEVEEEVERLLEEAERTPDPRRANNLLVRALFLAQKNNNDELLELVERVAEELSSSSSS
B12: il2ra_site2_2erj_normal_mot_HHH_b1_03609_af2_000000077_0001_42_55_H_._HHH_b1_00950_0001_0000200006_0000001_1 (protein)
chain: SSSSDVEELLEEAREATEEGDREAVEKLLSEASILAFRKNDFELWSLVSEVARELFRLLASSSSS
B13: il2ra_site2_3nfp_normal_mot_HHH_b2_07840_000000026_0001_18_34_H_._HHH_b1_07570_0001_0000600040_0000001_0 (protein)
chain: SSSSDEELEELLEEIEEALKNNDPEKVQRLLQEVTNLAFRRNDHEIFAAIIDLAELLAKLRSSSS
B14: il2ra_site1_3nfp_normal_mot_HHH_b1_04285_000000000_0001_1_16_H_._HHH_b2_05445_0001_0000200005_0000001_1_af2pred_0001_af2pred (protein)
chain: SSSSDREHLERVLELLRRLARVSEEEAKELLEEAQELAEEANDPALKKLVERFARVVRRTSSSSS
B15: il2ra_site2_3nfp_sap_29_mot_2fddaf487ee4b636a798e6d487813806_0001_000000215_0001_37_52_H_._6f585245ea955156d935feb295d12df0_0001_0001_0000500042_0000001_0_0001 (protein)
chain: SSSSKAEEYLEFALEALQRAVEEGDPEFVEKLEHIIRVVVETNNDEEAERLLEEILRRFEESSSS
B16: il2ra_site2_3nfp_normal_mot_HHH_b2_06320_000000197_0001_39_53_H_._HHH_b1_05126_af2_0001_0000500027_0000001_0 (protein)
chain: SSSSSSDVEELLKQIEELYKEGNEEEVRRLFAEILNEAFELRDHELFALLNELAEKLASSSSSSS
B17: il2ra_site1_2b5i_normal_mot_HHH_b2_04910_000000118_0001_1_19_H_._HHH_b1_07584_af2_0001_0000100006_0000001_0 (protein)
chain: SSSSSSAAEIFQELFREADELDRNGNPEEAQKVLEELLELLRELGNPWLVRSVEIALSDFSSSSS
B18: il2ra_site2_2erj_sap_18_mot_HHH_b2_05264_af2_000000057_0001_44_57_H_._HHH_b2_04770_0001_0000200005_0000001_0_0001_af2pred_0001_1_af2pred_swapped (protein)
chain: SSSSSSDLEERVEKLLEEAKEIKDLQEALKLLQEASELAAELDDDELLELVDRVLQELSSSSSSS

The target in the assay is il2ra, P01589. Briefly: yeast display titration.
On to B1, for which the “apparent Kd” value was “inactive: no binding seen”. The entry for B2 is “inactive: no binding seen”; for B3 it is “inactive: no binding seen”. For B4, the “apparent Kd” value is “inactive: no binding seen”. B5: the “apparent Kd” value is “inactive: no binding seen”. The entry for B6 is “inactive: no binding seen”. Then B7, with “inactive: no binding seen”; and B8, with “inactive: no binding seen”; and B9, with “inactive: no binding seen”. Then B10, with “inactive: no binding seen”; and B11, with “inactive: no binding seen”; and B12, with “inactive: no binding seen”. Regarding B13, the “apparent Kd” value is “inactive: no binding seen”. Then B14, with “inactive: no binding seen”. For B15, the “apparent Kd” value is “inactive: no binding seen”. Then B16, with “inactive: no binding seen”; and B17, with “inactive: no binding seen”. The entry for B18 is “inactive: no binding seen”.

(Values after article PMC10163288.)
